# Screen size: about 350,000 compounds; about 1,200 (0.34%) were called active. Inconclusive results, whose numbers are uncertain, are shown with a selection of clear calls. The call rests on the fitted dose curve; in most records, active means well fitted inhibition curve with a large enough effect; inconclusive means small, poorly fitted or top-dose-only effect; inactive means no such curve, though single readings can be large or run the other way. A potency beside an inconclusive call is a rough fit, not a confirmed value.
# By UniProt entry, the sequences of proteins in these tests, tags left out.
# UniProt P27695, whole entry, looked up: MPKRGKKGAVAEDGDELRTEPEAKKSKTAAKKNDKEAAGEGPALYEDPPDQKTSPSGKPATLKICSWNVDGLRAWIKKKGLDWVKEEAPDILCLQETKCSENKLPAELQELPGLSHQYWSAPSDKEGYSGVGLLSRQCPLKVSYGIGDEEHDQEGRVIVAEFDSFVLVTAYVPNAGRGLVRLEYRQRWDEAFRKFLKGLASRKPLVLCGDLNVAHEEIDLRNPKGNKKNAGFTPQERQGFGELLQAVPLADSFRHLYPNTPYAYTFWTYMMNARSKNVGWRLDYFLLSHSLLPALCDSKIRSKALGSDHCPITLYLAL
# Target: DNA repair nuclease/redox regulator APEX1 (Homo sapiens) (UniProt P27695)
# Experiment: qHTS Assay for Inhibitors of the Human Apurinic/apyrimidinic Endonuclease 1 (APE1); further: nearly all actives have a fitted effect of over 55% in size;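 on activity change, negative = inhibition: plate controls were vehicle for no effect and reference inhibitor for full effect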
# Conditions: recombinant APE1, TAMRA/BHQ-2 abasic DNA cleavage fluorescence; activity change, negative = inhibition: at 65.8 µM (top of the series)
# How it was run: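 Activity was derived from the fluorescence gain between first and third kinetic reads (60 s intervals, ex 525/em 598 nm) after 50 nM THF-abasic TAMRA/BHQ-2 duplex was added to 0.75 nM APE1 preincubated 15 min with compound.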
# Potency means the concentration at half of the fitted maximal effect.
Compound,Potency,"activity change, negative = inhibition"
COc1cccc(-c2nnc3sc(-c4ccccc4)nn23)c1,inactive,–
Cc1ccc2[nH]c(C)c(CCNC(=O)C3CCCCC3C(=O)OCC(F)(F)F)c2c1 (configuration not stated),"inconclusive: 39.8 µM [inhibitor, single point]",–
H-LRRASLG-OH,"inconclusive: 28.2 µM [inhibitor, single point]",–
COc1cc(C2CC(=O)Oc3c(C(CCN4CCN(c5ccccc5)CC4)c4ccc(N(C)C)cc4)c(OC)cc(OC)c32)cc(OC)c1OC (configuration not stated),"inconclusive: 44.7 µM [inhibitor, single point]",–
O=C(O)C1C2C=CC(CC2)C1C(=O)O (configuration not stated),active: 12.6 µM,–
COC(=O)CCCC[C@H]1SC[C@H]2NC(=O)N[C@]21O,inactive,–
NC(=O)c1cc2ccccc2o/c1=N/NC(=O)c1cccs1,"inconclusive: 12.6 µM [inhibitor, partial curve, poor fit]",–
CCOC(=O)CC(NC(=O)C1c2ccccc2Oc2ccccc21)c1ccccc1Cl (configuration not stated),"inconclusive: 0.0282 µM [inhibitor, full curve, poor fit]",–
O=S(=O)(O)c1cccc(N=Nc2c(O)ccc3ccccc23)c1,"inconclusive: 14.1 µM [inhibitor, partial curve]",–
CCOC(=O)NN1C(=O)c2ccccc2NC1c1ccc(OC)cc1OC (configuration not stated),"inconclusive: 0.447 µM [inhibitor, full curve]",–
O=C(CCCN1C(=O)/C(=C\c2ccco2)SC1=S)Nc1ccc(O)cc1C(=O)O,"inconclusive: 21.2 µM [inhibitor, single point]",–
O=C(C1CCC1)N1CCc2cc(S(=O)(=O)Nc3ccc4c(c3)OCO4)ccc21,inactive,–
COc1ccc(C(=O)NNC(=S)NC(=O)c2ccc(OC)cc2)cc1,"inconclusive: 0.752 µM [inhibitor, single point]",–
COc1ccc(CC(=O)NCC(c2ccc(OC)cc2)N(C)C)cc1 (configuration not stated),"inconclusive: 0.0032 µM [inhibitor, full curve, poor fit]",–
Cc1c(Br)c(=O)oc2c(Br)c(O)ccc12,"inconclusive: 5.01 µM [inhibitor, single point]",–
NC(=O)COC(=O)c1cc(-c2ccco2)nc2ccccc12,"inconclusive: 39.8 µM [inhibitor, single point]",–
O=C(NNc1ccccc1[N+](=O)[O-])Nc1cccc(Cl)c1,"inconclusive: 35.5 µM [inhibitor, single point]",–
O=C(CN1C(=O)c2cccc3cccc1c23)Nc1ccc(S(=O)(=O)N2CCOCC2)cc1,"inconclusive: 3.55 µM [inhibitor, full curve]",–
Cc1o[nH]c(=O)c1CC[C@H](N)C(=O)O,"inconclusive: 2.82 µM [inhibitor, partial curve]",–
Cc1noc(C)c1CCC(=O)N1CCCC(CCC(=O)NCc2ccc(F)c(F)c2)C1 (configuration not stated),inactive,–
Cc1ccc(Nc2nc(CSc3nnc(-c4cccnc4)n3-c3ccccc3C)cs2)cc1,"inconclusive: 0.0126 µM [inhibitor, full curve, poor fit]",–
COc1ccc(C(CNC(=O)c2ccc(OC)c(S(=O)(=O)N3CCCC3)c2)N2CCCC2)cc1 (configuration not stated),inactive,–
C#CCn1c(S(=O)(=O)Cc2ccc(OC)cc2)nc(-c2ccccc2)c1-c1ccccc1,"inconclusive: 25.1 µM [inhibitor, single point]",–

Compound,Potency,"activity change, negative = inhibition"
COc1ccc(-c2nnc3n2N=C(c2ccccc2OC)CS3)cc1,inactive,–
COc1cccc2c(=O)c3ccccc3oc12,"inconclusive: 6.31 µM [inhibitor, single point]",–
CCOc1ccccc1NC(=O)Nc1cc(OC)ccc1OC,"inconclusive: 2.82 µM [inhibitor, full curve, poor fit]",–
CC(=O)c1ccc(N2CCN(C(=O)Nc3ccc(F)cc3)CC2)cc1,inactive,–
C/C(N)=C(/C#N)C(=O)COC(=O)c1cccc(C)c1O,inactive,–
COc1cccc(NC(=O)c2ccc(-n3cccn3)nc2)c1,"inconclusive: 20 µM [inhibitor, single point]",–
C/C(=C\c1ccco1)C1Nc2cccc3cccc(c23)N1,"inconclusive: 1.78 µM [inhibitor, partial curve]",–
COc1cc(OC)c2c(-c3ccccc3)cc(=O)oc2c1C(CCN1CCCCC1)c1ccc2c(c1)OCO2 (configuration not stated),"inconclusive: 0.126 µM [inhibitor, single point]",–
Cc1ccc(NC(=O)OCCN2CCN(Cc3ccccc3)CCC2=O)cc1C,"inconclusive: 39.8 µM [inhibitor, single point]",–
Cc1ccc(OCCCC(=O)Nc2ccc(S(=O)(=O)Nc3ccccn3)cc2)cc1,"inconclusive: 6.31 µM [inhibitor, full curve, poor fit]",–
c1ccc2c(c1)ccc1nnc(SCc3ccc4c(c3)OCCO4)n12,inactive,–
C=CCSc1nc(C)c(CCC(C)C)c(=O)[nH]1,"inconclusive: 4.47 µM [inhibitor, single point]",–
NCCCC[C@H]1NC(=O)[C@H](CCC(=O)O)NC(=O)c2cc([N+](=O)[O-])cc(I)c2OCC[C@@H](C(N)=O)NC1=O,"inconclusive: 15.8 µM [inhibitor, partial curve]",–
O=C(Oc1coc(CSc2nnc(NC(=O)c3cccs3)s2)cc1=O)c1ccccc1,"inconclusive: 39.8 µM [inhibitor, single point]",–
C[C@@H]1OC(Oc2ccccc2-c2cc(=O)c3c(O)cc(O)c([C@@H]4O[C@H](CO)[C@@H](O)[C@H](O)[C@H]4O)c3o2)[C@H](O)[C@H](O)[C@H]1O (some centres not stated),"inconclusive: 25.1 µM [inhibitor, partial curve]",–
COc1ccc(C(=O)c2sc(Nc3ccccc3)nc2N)cc1,"inconclusive: 5.32 µM [inhibitor, single point]",–
CCOC(=O)c1nnc2cc(C)nn2c1C,"inconclusive: 20 µM [inhibitor, single point]",–
CC(C)c1ccc(/C=C/C(=O)N2CCc3ccccc3C2)cc1,"inconclusive: 44.7 µM [inhibitor, partial curve, poor fit]",–
C/C(=N\Nc1ccc(Cl)c(C(=O)O)c1)c1cccs1,"inconclusive: 25.1 µM [inhibitor, single point]",–
Cc1cc(SCC(=O)NC(=O)NCc2ccco2)nc2c(C)cccc12,"inconclusive: 25.1 µM [inhibitor, single point]",–
O=c1nc2s/c(=C\c3ccc(-c4ccccc4[N+](=O)[O-])o3)c(=O)n2nc1-c1ccccc1,inactive,–
CCOc1ccc(N2C(=O)CC(Sc3ccccc3C(=O)O)C2=O)c([N+](=O)[O-])c1 (configuration not stated),inactive,–
Cc1cc(C(=O)Nc2sc3c(c2C#N)CCC(C)C3)no1 (configuration not stated),"inconclusive: 22.4 µM [inhibitor, partial curve, poor fit]",–

# Given with tabs: part of the list above
Compound	Potency	activity change, negative = inhibition
C/C(N)=C(/C#N)C(=O)COC(=O)c1cccc(C)c1O	inactive	–
Cc1ccc(OCCCC(=O)Nc2ccc(S(=O)(=O)Nc3ccccn3)cc2)cc1	inconclusive: 6.31 µM [inhibitor, full curve, poor fit]	–
CCOC(=O)c1nnc2cc(C)nn2c1C	inconclusive: 20 µM [inhibitor, single point]	–
CCOc1ccc(N2C(=O)CC(Sc3ccccc3C(=O)O)C2=O)c([N+](=O)[O-])c1 (configuration not stated)	inactive	–

# Following part:

Compound,Potency,"activity change, negative = inhibition"
CCn1c(CSCc2c(Cl)cccc2Cl)n[nH]c1=S,"inconclusive: 0.708 µM [inhibitor, full curve, poor fit]",–
COc1ccccc1N1CCN(C2CCCN(C(=O)CC(F)(F)F)C2)CC1 (configuration not stated),–,inconclusive: -6.32% [inhibitor]
Cc1ccc2c(c1)C1CC(C)(O2)N(c2cccc(C(=O)NC3CCN(Cc4ccccc4)CC3)c2)C(=O)N1 (configuration not stated),active: 23.8 µM,–
CCOc1cccc(N(C(=O)c2ccco2)C(C(=O)NC2CCCC2)c2cccnc2)c1 (configuration not stated),inactive,–
C=CCn1c(SCc2ccc3nonc3c2)nnc1-c1cccs1,"inconclusive: 8.91 µM [inhibitor, single point]",–
CC(C)Oc1ccc(C2CC(=O)N(c3cccc(Br)c3)C2=O)cc1 (configuration not stated),"inconclusive: 0.0079 µM [inhibitor, full curve, poor fit]",–
O=C(CCC(=O)Nc1ccccc1)NNC(=O)c1ccccc1Cl,"inconclusive: 0.0032 µM [inhibitor, full curve]",–
CC1=NN(c2ccc(C(=O)O)c(N)c2)C(=O)C1,active: 2 µM,–
N#Cc1ccsc1NC(=O)COC(=O)CCS(=O)(=O)c1ccccc1,inactive,–
O=c1cc(-c2ccc(O)c(O)c2)oc2cc(OC3OC(CO)C(O)C(O)C3O)cc(O)c12 (configuration not stated),"inconclusive: 2.82 µM [inhibitor, full curve]",–
COc1ccc(/C=N/NC(=O)CCN2CCN(c3ccccc3)CC2)c(OC)c1OC,inactive,–
COc1cc(OC)c2c(-c3ccccc3)cc(=O)oc2c1C(CC(=O)N1CCN(c2ccccc2)CC1)c1ccc2c(c1)OCO2 (configuration not stated),"inconclusive: 31.6 µM [inhibitor, partial curve]",–
COc1ccc(C)cc1N(CC(=O)N/N=C/c1ccccc1C(=O)O)S(=O)(=O)c1ccccc1,inactive,–
Cc1nc2ccccn2c1C(=O)NN=C1CCN(C)CC1,"inconclusive: 14.1 µM [inhibitor, partial curve]",–
CCOc1ccc(C2=Cc3cc(OC)c(OC)cc3C(=C(Cl)Cl)O2)cc1,"inconclusive: 3.98 µM [inhibitor, full curve]",–
Cc1sc2nc(COC(=O)c3ccc(O)cc3)[nH]c(=O)c2c1C,"inconclusive: 25.1 µM [inhibitor, single point]",–
Cc1ccc(NC2=C(N3CCCCC3)C(=O)c3ccccc3C2=O)cc1,"inconclusive: 44.7 µM [inhibitor, single point]",–
CC1=C(C(=O)OCc2ccccc2)C(c2cccc([N+](=O)[O-])c2)NC(=O)N1CCCCCC(=O)O (configuration not stated),inactive,–
Nc1ncnc2c1ncn2[C@@H]1O[C@H](CO)[C@@H](O)[C@H]1O,"inconclusive: 31.6 µM [inhibitor, single point]",–
CCOc1ccc(NC(=O)Nc2nc(SCC)ns2)cc1,inactive,–
CC(C)C1N=C2c3ccccc3N=C(SCC(=O)c3ccc(O)c(O)c3)N2C1=O (configuration not stated),"inconclusive: 17.8 µM [inhibitor, partial curve]",–

# Record cards, from the list above. Order of values: Potency | activity change, negative = inhibition
# CCOc1ccc(C2=Cc3cc(OC)c(OC)cc3C(=C(Cl)Cl)O2)cc1 is listed with inconclusive: 3.98 µM [inhibitor, full curve] | –
# N#Cc1ccsc1NC(=O)COC(=O)CCS(=O)(=O)c1ccccc1 is listed with inactive | –

# Reference: PubChem BioAssay AID2517 (National Center for Advancing Translational Sciences (NCATS), 2010)
